From US20060134197A1, “Method of reducing unpleasant taste and/or unpleasant odor” (priority 2002, published 2006)
Some results were stated once for a whole list of compounds, not compound by compound. For at least one compound, name, drawing or mass did not settle the structure.

Assay: Panel test of lowering iron taste and/or smell of aqueous bivalent iron ion solution
Details: to the total weight of the aqueous solution, dry solid basis
Experimental: To confirm the effect of various saccharides on inhibiting taste and/or smell of bivalent iron ion, the following experiment was carried out. An aqueous solution containing bivalent iron ion was prepared by dissolving 0.05556 part by weight of ammonium ferric citrate (iron content of about 18%), and 0.1 part by weight of ascorbic acid in 100 parts by weight of deionized water. Test aqueous solutions containing 5 mg of bivalent iron per 100 ml of water and 0.5, 1.0, 1.5, 2.0 or 5.0% of saccharide selected from sucrose, maltose (hydrous crystalline maltose commercialized by Hayashibara Biochemical Laboratories, Inc., Okayama, Japan, purify 99.0% or more), α,α-trehalose (hydrous crystalline α,α-trehalose commercialized by Hayashibara Biochemical Laboratories, Inc., Okayama, Japan, purity 99.0% or more), α-glucosyl α,α-trehalose (hydrous crystalline α-glucosyl α,α-trehalose prepared in Experiment B-1 of Japanese Patent Publication (Kokai) No. 291,986/1995, purity 99.0% or more), and […] (powdery α-maltosyl α,α-trehalose prepared in Example 5 described following, purity 98.1%) were prepared by admixing the above aqueous solution containing bivalent iron with an equal volume of a pre-prepared aqueous solution containing any one of the above saccharides at a concentration of 1.0, 2.0, 3.0, 4.0 or 10.0%, on a dry solid basis. […]

Compound | Concentration effective on lowering unpleasant taste and/or smell of aqueous iron ion solution
OC[C@H]1O[C@H](O[C@H]2O[C@H](CO)[C@@H](O[C@H]3O[C@H](CO)[C@@H](O)[C@H](O)[C@H]3O)[C@H](O)[C@H]2O)[C@H](O)[C@@H](O)[C@@H]1O [α-Glucosyl α,α-trehalose, α-glucosyl α,α-trehalose] | ≥ 1%
OC[C@H]1O[C@H](O[C@H]2O[C@H](CO)[C@@H](O[C@H]3O[C@H](CO)[C@@H](O[C@H]4O[C@H](CO)[C@@H](O)[C@H](O)[C@H]4O)[C@H](O)[C@H]3O)[C@H](O)[C@H]2O)[C@H](O)[C@@H](O)[C@@H]1O [α-Maltosyl α,α-trehalose, α-maltosyl α,α-trehalose] | ≥ 1%
